# Primary screen of a compound library

A: 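Whole-cell assay for inhibitors of Mycobacterium tuberculosis growth, labelled Cornell in the record; the read-out is not stated. The concentration is filed as 10 mM, unlikely as a test dose, so the dose is not known. Higher means stronger inhibition (inferred from two other growth screens of the library). About 53,000 compounds were tested under these conditions; 1.7% (about 900) showed 50% or more at least once.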
B: 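Assay on Mycobacterium tuberculosis, filed only as a heat shock assay from Cornell; the read-out is not stated. The concentration is filed as 10 mM, unlikely as a test dose, so the dose is not known. The record gives no direction; compounds that gave an IC50 in retests scored well above the rest, so higher reads as stronger inhibition. Of about 69,000 compounds tested this way, about 930 (1.4%) reached 50% or more in at least one test.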

The filed quantity is “Percent Effect” (%).
How 0% and 100% were set is not recorded. Most values in the screen are low, and negative values occur.
The compounds are a random part of those screened.

Cc1nc(CC(=O)N2CCC3(CC2)CC(=O)N(CC2CCCO2)C3)cs1 (stereo unspecified) read A: 6.147%; B: 3.526%. With CCn1ccc2cc(NC(=O)CC3CCCO3)ccc21 (stereo unspecified) the screen gave A: -12.03%; B: 5.594%. N#CC1COCCN1C(=O)c1ccc2cc[nH]c2c1 (stereo unspecified) gave A: 25.43%; B: 12.17%. For [H][C@@]12CCN(Cc3nc(C)cs3)C[C@@]1([H])O[C@@H](c1noc(C)n1)C2 the result was A: 10.34%; B: -18.25%. With CCN1CCN(C(=O)c2cccn2Cc2ccccc2)CC1 the screen gave B: -8.564%. With COc1ccccc1N1CCC(CNCc2c(C)nn(C)c2OC)C1 (stereo unspecified) the screen gave A: -14.82%; B: 8.726%. For CN1CCC(N(C)C[C@H]2CC[C@@H](Cc3ccc4c(cnn4C)c3)O2)CC1 the result was A: 27.39%; B: -3.944%. CC(C)(C)CN1CCCC12Cc1ccccc1CNC2=O (stereo unspecified) read B: -22.55%.

COc1ccc(OCCN2CCN(Cc3nccn3C)CC2)cc1 gave A: -20.15%; B: -17.53%. Result for COc1ccc(/C=C/CN2CCN(c3ncccc3C(N)=O)CC2)cc1 was A: 26.36%; B: 5.83%. Result for Cc1nc(NCCc2noc(C3CCCO3)n2)c2sccc2n1 (stereo unspecified) was A: -17.69%; B: -7.864%. [H][C@]12CCN(C(=O)CC3CC3)C[C@@]1([H])OCCN(Cc1csc(C)n1)C2 read A: 21.81%; B: -27.87%. Result for Cc1ccc(-c2cnc3n2CCN(C)C32CCN(CC3CC3)CC2)cc1.O=C(O)C(F)(F)F.O=C(O)C(F)(F)F.O=C(O)C(F)(F)F was A: 30.01%; B: -3.747%. With O=C(CC1CCCC1)NCCn1nc2ccccn2c1=O the screen gave A: -2.759%; B: -2.275%. O=C(Cc1ccc2c(c1)OCC2)Nc1nc[nH]n1 gave A: -35.48%; B: 4.526%. With O=C1CC2(CCN(Cc3ccoc3)C2)CN1c1cncnc1 (stereo unspecified) the screen gave A: 25.27%; B: -9.615%.

Result for CCOc1ccc(NC(=O)N(C)Cc2cnn(C)c2)c(C)c1 was B: -3.801%. With CCOC(=O)C1CC2(CCOCC2)N2CCC(=O)N12 (stereo unspecified) the screen gave A: -56.38%; B: 9.979%. CC(=O)c1ccc(S(=O)(=O)N2CCOC(Cn3ccnc3)C2)cc1 (stereo unspecified) read A: 12.06%; B: -4.596%. CC(NC(=O)NCCCN(C)S(C)(=O)=O)c1ccc(C#N)cc1 (stereo unspecified) gave A: -29.63%; B: -11.84%. For Cc1ccc(N2N=C(C(=O)NCC3CC3)S(=O)(=O)c3cccnc32)cc1 the result was A: 11.26%; B: 9.457%. Result for CN(C)CCCN(C)C1CCN(c2cccc(-c3cscn3)c2)CC1 was B: -0.9207%. With CCC(c1ccncc1)N(C)S(C)(=O)=O (stereo unspecified) the screen gave A: 15.16%; B: -6.279%. CCCS(=O)(=O)N1CCN(CC(F)(F)F)CC1 gave A: 13.77%; B: 18.03%.

Result for CC1CN(CCC(=O)NCCc2cccnc2)Cc2ccccc2O1 (stereo unspecified) was B: -21.44%. With CC(C)N1CCCC2(CCN(Cc3noc(C4CCCC4)n3)C2)C1=O (stereo unspecified) the screen gave A: -4.089%; B: -0.2794%. CN(CC(=O)NCC1CCCCC1)S(=O)(=O)c1cccnc1 read A: -7.587%; B: -0.1129%. For CCS(=O)(=O)c1ccc(CNc2c(Cl)cccc2C#N)cc1 the result was A: 26.57%; B: -5.129%. With CC(C)(NS(C)(=O)=O)C(=O)NCCc1csc2ccccc12 the screen gave A: 24.27%; B: -33.08%. CNC(=O)[C@@H](C)NC(=O)c1cc(-c2ccc(F)cc2)c(C)s1 gave A: -17.47%; B: -9.782%. CCc1c(C)n(CCC#N)c2nc3ccccc3n2c1=O gave A: 37.1%; B: -3.322%. Result for CCN1CC2(CCN(CCOCCO)CC2)CC(c2ccccc2)C1=O (stereo unspecified) was A: 25.12%; B: -3.483%.

For CCc1nnc2n1CCN(Cc1csc(-c3cnn(C)c3)n1)C2 the result was A: -9.398%; B: 103.2%. For CC(=O)N1Cc2nc(C(=O)NCCc3cccnc3)oc2C1 the result was A: 8.362%; B: 0.09104%. CCN(CC)C(=O)c1nnsc1-c1ccccc1 read A: -0.6838%; B: -5.657%. With CCC(C)NC(=O)CCn1ccc(C)n1 (stereo unspecified) the screen gave B: -4.331%. With c1ccc(-c2noc(CNC3CCc4ncnn4C3)n2)nc1 (stereo unspecified) the screen gave A: 14.59%; B: 12.13%.

From ChEMBL document CHEMBL3988442, “University of Dundee, Small-Polar-MMV Screening Library” (2021).